Where “and” joins values, the source holds several entries; their conditions need not be identical. Equal entries are not always repeated. Shown are results outside the selection of hits, which stands elsewhere. Inconclusive results are not listed. Calls of active or inactive are those of the source. Unless noted, calls follow the shape of the full dose curve.
What was measured:
[1] = molecular target: Gonadotropin-releasing hormone receptor (Homo sapiens) (UniProt P30968); experiment: Human gonadotropin-releasing hormone receptor (GnRHR) small molecule agonists, calcium flux assay in GnRHR-HEK293 cells (AID 1920063); conditions: calcium flux fluorescence, agonist mode, hits give high values; also: nearly all actives have a fitted effect of over 35% in size
Method in brief: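 Stable human GnRHR HEK293 line. 18 h plating, then calcium dye for 1 h at 37 C. Agonist-mode compound addition from DMSO stocks; fluorescence monitored 3 min.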

Chains of the proteins cited; added tags and fusions are not shown. Lines headed by an entry give the natural chain unless they say otherwise; changes in a name come on top.
UniProt P30968: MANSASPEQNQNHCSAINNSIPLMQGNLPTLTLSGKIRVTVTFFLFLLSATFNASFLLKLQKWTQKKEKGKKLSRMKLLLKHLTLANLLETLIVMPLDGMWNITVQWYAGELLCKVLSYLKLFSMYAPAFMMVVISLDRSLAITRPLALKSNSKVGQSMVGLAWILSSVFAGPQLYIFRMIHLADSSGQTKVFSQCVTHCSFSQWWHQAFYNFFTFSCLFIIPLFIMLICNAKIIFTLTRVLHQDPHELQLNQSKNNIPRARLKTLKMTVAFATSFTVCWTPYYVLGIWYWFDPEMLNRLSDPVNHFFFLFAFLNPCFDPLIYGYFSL
UniProt Q969F8, whole entry, looked up: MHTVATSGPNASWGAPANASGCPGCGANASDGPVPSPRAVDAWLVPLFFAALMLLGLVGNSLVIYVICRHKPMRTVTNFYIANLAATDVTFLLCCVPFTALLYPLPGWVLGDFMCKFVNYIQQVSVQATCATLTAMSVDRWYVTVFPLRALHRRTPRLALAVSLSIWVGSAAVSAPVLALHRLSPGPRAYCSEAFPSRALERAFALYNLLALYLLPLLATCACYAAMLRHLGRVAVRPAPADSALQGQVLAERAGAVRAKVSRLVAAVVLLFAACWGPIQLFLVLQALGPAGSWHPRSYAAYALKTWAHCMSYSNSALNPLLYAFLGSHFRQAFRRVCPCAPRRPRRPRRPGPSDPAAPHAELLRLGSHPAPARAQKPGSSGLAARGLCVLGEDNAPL

[2] = molecular target: KiSS-1 receptor (Homo sapiens) (UniProt Q969F8); experiment: Human kisspeptin (KISS1R) small molecule agonists, calcium flux assay in KISS1R-HEK293 cells (AID 1920064; active = well fitted activation curve with a large enough effect in the repeat runs); conditions: KISS1R-HEK293, calcium flux fluorescence, agonist
From the text: National Center for Advancing Translational Sciences [NCATS]
Division of Preclinical Innovation [DPI]
U.S. Environmental Protection Agency [EPA]
National Institutes of Environmental Health Sciences [NIEHS]
National Toxicology Program [NTP]
U.S. Food and Drug Administration [FDA]
Kisspeptin and its receptor KISS1R play key roles in mammalian reproduction due to their involvement in the onset of puberty and control of the hypothalamic-pituitary-gonadal axis such as regulates GnRH release from the hypothalamus. The kisspeptin/KISS1R system also plays a direct role in peripheral organs (including the ovary, testis, uterus, and placenta) and is implicated in reproductive diseases such as miscarriage and polycystic ovary syndrome (PCOS). Abnormal KISS1R activity is associated with abnormal puberty, infertility, endometriosis, and hormone-dependent tumors. The KISS1 receptor (KISS1R, also called GPR54), a G-protein-coupled receptor (GPCR), acts (through phospholipase C) to increase intracellular inositol trisphosphate and then release intracellular calcium stores. Cell-based KISS1R-HEK293 assay is using HEK293 cells that have been genetically engineered to express the human KISS1R, which activity can be measured by calcium signaling. A compound/drug can activate (agonist) KISS1R that can be monitored by levels of intracellular calcium.
KISS1R-HEK293 cells developed by Codex Corp contain human KISS1R gene, which was stably integrated into HEK 293 cells. The compound activation can be detected by fluorescence intensity via calcium flux assay. This cell line has been used to screen the Tox21 10K compound library to identify agonists of KISS1R.
KISS1R-Hek293 cells were dispensed at 1500 cells/4uL/well in 1536-well black wall/clear bottom plates using a multidrop dispenser. After the assay plates were incubated at a 37 C/5% CO2 incubator for 18 hours, 4 microL of Calcium Dye Solution was added to each well. The plates were incubated at 37 C for 1 hour. And then 23 nL of compounds dissolved in DMSO, positive controls, or DMSO only was transferred to the assay plate by a pin tool station. The fluorescence intensity in the plates was measured using FDSS 7000EX kinetic plate reader with a filter set of Ex/Em=480/540 for 3 min at 1 sec intervals. Each test compound was measured at 15 concentrations and in triplicates.

[3] = G protein-coupled receptor (GPCR) small molecule agonists, calcium flux assay: HEK293 wild type cell line counter screen (AID 1920065); conditions: HEK293 WT calcium flux, fluorescence, agonist mode
Method in brief: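 Following 18 h incubation at 37 C/5% CO2, plates got calcium dye for 1 h; compounds, ATP or DMSO were then pinned in and fluorescence followed kinetically (480/540 nm).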

[4] = cAMP Responsive Elements (CRE) small molecule agonists, cell-based qHTS assay (AID 1963590); conditions: CRE-bla HEK293T, beta-lactamase FRET ratio, 3 h
From the text: U.S. Tox21 Program National Center for Advancing Translational Sciences [NCATS] Division of Preclinical Innovation [DPI] U.S. Environmental Protection Agency [EPA] National Institutes of Environmental Health Sciences [NIEHS] National Toxicology Program [NTP] U.S. Food and Drug Administration [FDA] Tox21 Assay Overview: CREB (cyclic-AMP Responsive Element Binding Protein) is a cellular transcription factor. It binds to certain DNA sequences called cAMP Responsive Elements (CRE) and regulates the transcription of the genes. […] This cell line can be used to find agonists/antagonists of the cyclic AMP signaling pathway. The activation of the report gene under culture conditions can be detected by fluorescence intensity. This cell line has been used to screen the Tox21 10K compound library to identify agonists that induce oxidative stress.
Tox21 Assay Protocol Summary: CRE-bla Hek 293T cells were suspended in assay medium (DMEM containing 10% dialyzed FBS, 0.1 mM NEAA, 1 mM sodium pyruvate and 25 mM HEPES) and dispensed at 2,000 cells/5 uL /well into 1536-well black wall/clear bottom plates using a Multidrop Combi (ThermoFisher Scientific, Waltham, MA) dispenser. After the assay plates were incubated at 37 C/5% CO2 for 18 hrs, 23 nL of compounds dissolved in DMSO, positive controls or DMSO only was transferred to the assay plate by a pintool workstation (Kalypsys, San Diego, CA). After the plates were incubated at 37 C/5% CO2 for 3 hrs, 1 uL of LiveBLAzer B/G FRET substrate (Invitrogen, Carlsbad, CA) was added to each well using Bioraptr Flying Reagent Dispenser (FRD, Aurora Discovery, San Diego, CA). The plates were incubated at room temperature for 2 h.

[5] = cAMP Responsive Elements (CRE) small molecule antagonists, cell-based qHTS assay (AID 1963591; active = well fitted inhibition curve with a large enough effect in the signal ratio in the repeat runs, not every such curve was filed as active; the % refers to the signal ratio); conditions: CRE-bla HEK293T, beta-lactamase FRET ratio
Method in brief: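 Reporter line CRE-bla HEK 293T in dialyzed-FBS DMEM; cells preincubated 18 h, treated 3 h with compound plus NKH477 (0.25 uM final); LiveBLAzer FRET, 2 h RT.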
% is scaled to controls: 0 for no effect and ±100 for the full control effect.

Cc1ccc2ccccc2c1C
inactive: activity change ([1]; at 57.6 µM (top of the series)) 0.206% and -0.45% | activation ([2]; at 76.8 µM (top of the series)) -2.4% and -1.06% | activation ([3]; at 57.6 µM (top of the series)) 0.928% and -1.78% | activation ([4]; at 92.4 µM (top of the series)) -0.0895% and 1.62% | activity change, negative = inhibition ([5]; at 92.4 µM (top of the series)) 4.88%

CC(C)(C)c1ccc(O)cc1
inactive: activity change ([1]; at 26.4 µM (top of the series)) -0.805% | activity change ([1]; at 57.6 µM (top of the series)) 7.57% and 1.08% | activation ([2]; at 35.3 µM (top of the series)) -0.67% | activation ([2]; at 76.8 µM (top of the series)) -1.83% and 2.83% | activation ([3]; at 26.5 µM (top of the series)) -0.781% | activation ([3]; at 57.6 µM (top of the series)) 2.13% and -1.07% | activation ([4]; at 42.5 µM (top of the series)) 1.08% | activation ([4]; at 92.4 µM (top of the series)) 0.885% | activity change, negative = inhibition ([5]; at 42.4 µM (top of the series)) -9.69% | activity change, negative = inhibition ([5]; at 92.4 µM (top of the series)) -19.1%

O=[N+]([O-])c1ccccc1Cl
inactive: activity change ([1]; at 57.6 µM (top of the series)) -1.48% | activation ([2]; at 76.8 µM (top of the series)) -2.51% | activation ([3]; at 57.6 µM (top of the series)) -0.112% | activation ([4]; at 92.4 µM (top of the series)) -0.0538% | activity change, negative = inhibition ([5]; at 92.4 µM (top of the series)) 1.06%

Cc1ccc(O)cc1C
inactive: activity change ([1]; at 57.6 µM (top of the series)) -0.927% and 0.793% | activation ([2]; at 76.8 µM (top of the series)) 0.387% and 0.209% | activation ([3]; at 57.6 µM (top of the series)) -0.052% and -1.66% | activation ([4]; at 92.4 µM (top of the series)) 0.0482% and 0.0157% | activity change, negative = inhibition ([5]; at 92.4 µM (top of the series)) 1.23%

Oc1c(Cl)cc(Cl)cc1Cl
inactive: activity change ([1]; at 57.6 µM (top of the series)) 1.09% and -0.991% | activation ([2]; at 76.8 µM (top of the series)) 1.26% and 0.0001% | activation ([3]; at 57.6 µM (top of the series)) -0.738% and 0.212% | activation ([4]; at 92.4 µM (top of the series)) 1.02% and 1.74% | activity change, negative = inhibition ([5]; at 92.4 µM (top of the series)) 5.68% and 3.31%
